Experimental findings from PMC8163974 are described below.

Amino acid sequences for entries named in this document (tags omitted). A change or cut given only in a name is not applied to a line headed by its entry. Chains listed by the source or under a name are the forms on record and can include a tag or linker.
UniProt Q14494: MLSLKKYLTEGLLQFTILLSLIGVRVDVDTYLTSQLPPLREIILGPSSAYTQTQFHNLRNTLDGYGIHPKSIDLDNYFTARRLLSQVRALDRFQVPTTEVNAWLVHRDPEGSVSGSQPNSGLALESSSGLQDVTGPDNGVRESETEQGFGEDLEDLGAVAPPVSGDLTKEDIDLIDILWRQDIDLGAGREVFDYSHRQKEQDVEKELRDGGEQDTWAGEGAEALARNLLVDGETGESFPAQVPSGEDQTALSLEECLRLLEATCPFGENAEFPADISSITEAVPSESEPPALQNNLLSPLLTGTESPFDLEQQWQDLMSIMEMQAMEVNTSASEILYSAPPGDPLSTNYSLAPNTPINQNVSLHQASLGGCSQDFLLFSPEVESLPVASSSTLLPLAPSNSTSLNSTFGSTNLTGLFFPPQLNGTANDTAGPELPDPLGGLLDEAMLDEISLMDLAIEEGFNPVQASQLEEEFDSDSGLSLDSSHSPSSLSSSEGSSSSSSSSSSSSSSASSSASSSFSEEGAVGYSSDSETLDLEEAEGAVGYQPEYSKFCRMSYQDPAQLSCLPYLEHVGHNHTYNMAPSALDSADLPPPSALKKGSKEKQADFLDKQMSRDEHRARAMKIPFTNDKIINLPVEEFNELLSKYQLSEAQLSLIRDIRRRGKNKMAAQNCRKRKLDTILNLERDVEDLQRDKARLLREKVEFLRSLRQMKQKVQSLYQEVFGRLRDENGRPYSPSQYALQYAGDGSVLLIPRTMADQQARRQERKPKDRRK
V5-tagged Nrf1a (Q14494, form named): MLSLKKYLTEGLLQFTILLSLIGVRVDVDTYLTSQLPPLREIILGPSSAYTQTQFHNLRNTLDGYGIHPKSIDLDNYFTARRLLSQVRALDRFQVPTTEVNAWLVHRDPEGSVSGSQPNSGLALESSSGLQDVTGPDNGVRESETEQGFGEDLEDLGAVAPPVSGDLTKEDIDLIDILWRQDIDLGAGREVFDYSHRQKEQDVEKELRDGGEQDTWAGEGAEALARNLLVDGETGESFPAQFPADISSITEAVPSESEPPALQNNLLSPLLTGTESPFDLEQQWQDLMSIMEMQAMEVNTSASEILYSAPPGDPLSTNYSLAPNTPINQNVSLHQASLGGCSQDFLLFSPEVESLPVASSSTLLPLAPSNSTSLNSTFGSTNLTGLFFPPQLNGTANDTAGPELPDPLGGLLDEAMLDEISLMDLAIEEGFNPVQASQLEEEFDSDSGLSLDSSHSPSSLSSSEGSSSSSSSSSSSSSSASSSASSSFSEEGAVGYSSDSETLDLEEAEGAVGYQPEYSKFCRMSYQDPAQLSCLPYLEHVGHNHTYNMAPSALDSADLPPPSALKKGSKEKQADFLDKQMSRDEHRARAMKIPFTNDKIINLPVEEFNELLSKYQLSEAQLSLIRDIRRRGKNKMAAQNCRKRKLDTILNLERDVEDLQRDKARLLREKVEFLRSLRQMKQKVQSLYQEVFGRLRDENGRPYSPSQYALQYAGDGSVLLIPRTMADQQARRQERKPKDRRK
UniProt Q93009: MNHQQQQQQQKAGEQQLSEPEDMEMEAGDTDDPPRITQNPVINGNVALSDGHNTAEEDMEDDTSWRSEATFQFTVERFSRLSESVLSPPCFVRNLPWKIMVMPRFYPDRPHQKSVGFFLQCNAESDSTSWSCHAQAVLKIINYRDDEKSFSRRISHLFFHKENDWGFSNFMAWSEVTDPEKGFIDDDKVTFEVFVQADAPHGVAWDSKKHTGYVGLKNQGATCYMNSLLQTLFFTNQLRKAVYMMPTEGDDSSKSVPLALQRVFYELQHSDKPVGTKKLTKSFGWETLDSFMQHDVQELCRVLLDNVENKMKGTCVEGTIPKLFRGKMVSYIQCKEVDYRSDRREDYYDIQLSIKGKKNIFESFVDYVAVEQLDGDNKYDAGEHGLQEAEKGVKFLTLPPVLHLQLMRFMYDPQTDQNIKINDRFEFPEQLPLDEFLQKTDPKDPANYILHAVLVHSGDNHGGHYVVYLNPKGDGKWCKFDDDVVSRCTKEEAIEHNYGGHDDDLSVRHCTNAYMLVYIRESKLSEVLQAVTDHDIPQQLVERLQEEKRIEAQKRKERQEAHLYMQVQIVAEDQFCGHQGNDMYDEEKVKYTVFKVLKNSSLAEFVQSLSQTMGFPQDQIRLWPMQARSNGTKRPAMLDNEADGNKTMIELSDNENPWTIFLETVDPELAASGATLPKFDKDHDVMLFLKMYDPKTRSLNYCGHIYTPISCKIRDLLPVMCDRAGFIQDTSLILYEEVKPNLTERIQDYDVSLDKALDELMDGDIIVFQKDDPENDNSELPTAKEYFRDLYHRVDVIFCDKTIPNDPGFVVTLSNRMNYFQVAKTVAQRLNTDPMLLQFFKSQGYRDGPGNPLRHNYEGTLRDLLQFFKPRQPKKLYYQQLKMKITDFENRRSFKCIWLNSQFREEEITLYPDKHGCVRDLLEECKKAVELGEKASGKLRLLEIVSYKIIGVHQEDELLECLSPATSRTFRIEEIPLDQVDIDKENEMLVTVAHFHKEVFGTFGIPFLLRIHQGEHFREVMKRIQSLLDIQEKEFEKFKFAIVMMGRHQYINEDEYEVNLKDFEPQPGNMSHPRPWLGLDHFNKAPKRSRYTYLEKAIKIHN

Results are given in words; binding and its absence hold for the method and conditions named. In cells and extracts the contact can be indirect. Some binding calls cover weakened binding; strength is not graded here.

In one test the target is V5-tagged TCF11 (UniProt Q14494). The experiment in a line: co-IP; cells transfected with increasing amounts of TCF11-V5 or Nrf1a-V5 (0, 2, 4 ug); lysis in 2% SDS buffer, diluted 5-fold; anti-V5 IP overnight at 4 C, protein-G Sepharose, RIPA washes; blot with anti-USP7.
The target of another test is V5-tagged Nrf1a (UniProt Q14494). The test is described as above.

Consider “endogenous USP7 (ubiquitin specific protease 7) (from UniProt Q93009 1-1102) (enzyme)”, for which the binding entry with V5-tagged TCF11 and with V5-tagged Nrf1a was “binds” each time.
